For 105 sequences, z-score results are on record in PubChem BioAssay AID1347423 (Functional Genomics Laboratory (NCATS/FGL), 2020).

Hit rate of the full screen: of about 52,000 sequences, about 210 (0.4%) were called active.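 The calls were made as follows: active = gene whose silencing raises cell survival under the drug, median off-target-corrected z-score across its silencing RNAs 2 or more; inactive = the rest.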 This is one part of the list.

The nature of the assay: Resistance to Poly (ADP-Ribose) Polymerase inhibitor: Gene Identification via Genome-wide siRNA Screen. To be noted: mouse BRCA2 R2336H ES cells, olaparib, CellTiter-Glo viability; stronger effect = higher value. In a few lines: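 Mouse BRCA2 R2336H ES cells were reverse-transfected with siRNA (20 nM final), treated at 48 h with 500 nM olaparib, and read by CellTiter-Glo after 72 h. Scores: MAD-based z per siRNA, median per gene, seed off-target correction.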
Take GGACUUGAAAGAUAAAUAGTT against Crx: the z-score was inactive: 0.683.
Then GGACAAGAUUCUAAACUGCTT against Wdr37, with inactive: -0.307; and “GCUUUUGGUACAGGAUGCCTT against 5830411N06Rik”, with inactive: 0.964; and GGAUGGACUCCAGAAAAAUTT against Mmp1b, with inactive: -2.48.
As to GGUACUGCUAUGAGAAACUTT against Adam22, the z-score was inactive: -2.54.
Turning to GCAUGUUACUAGGAUAACUTT against MGC107671, the z-score was inactive: -0.253.
Then GGACAUUACCUCCUUUGACTT against Tbl3, with inactive: -1.03; and GCUAAGAUUGUCAUGAUGUTT against Bambi, with inactive: 0.222; and AAGACUGAGAGAGUCUUUUTT against Tcte3, with inactive: 0.5.
The figure for CCUGGUCAGUCUUACUUCUTT against Rbks is inactive: -0.288; for GGAAGUGUAAUGGAAGCAATT against Kdt1 it is inactive: -1.13.
Then GCCACCACAAUCAACAUGCTT against Ifitm1, with inactive: -0.0049; and UUAUUGAGGCCGGGCUCAUTT against AW146299, with inactive: -0.67; and GGAUCUCUUUCUUCACAGUTT against Pcdhgb7, with inactive: 0.468.
For the sequence GGUCAAAGUACUGAAGCUUTT against Mapre1, the z-score is inactive: -2.19.
For the sequence GGCAUCAACUUCAUGCUGATT against Olfr535, the z-score is inactive: -0.17.
The figure for GGGAUGCAGUGACCAUAGATT against Aldh3b1 is inactive: -0.567; for GGAGACAACCUGUACUCAGTT against Zfp352 it is inactive: -0.118; for GCAGGAAGGAGAUUUUAUATT against Tbpl1 it is inactive: -0.172.
The figure for GGAGACAGCUCAAAAAGAATT against AI462438 is inactive: -0.0595; for GCCAACCAUUAAGCUACUATT against Gyg1 it is inactive: -2.5; for CGCAAAUCUCAGGAAAGAATT against Anxa9 it is inactive: -0.746.
Then GGUAAGAUUAAAAGACUCATT against Cpsf2, with inactive: -0.342; and CGGCUCGUAGUUUAUUAAATT against Ccnk, with inactive: -1.74; and GGAACACCACCUUAGAGAUTT against Hnrpa2b1, with inactive: 0.646.
With GCCGUCCAACACUUGAUUGTT against Rttn, the z-score is inactive: -0.989.
Then GGUCCCAGGUACAACAAAATT against V1rg2, with inactive: 1.92.
In the case of GGCCUAAUUCCACCUUUGCTT against Etv4, the z-score was inactive: -1.27.
The figure for CGUAAACAUUUCCUUCUACTT against Dmbt1 is inactive: 2.29; for GGAGAUCAUUGAAUACUACTT against Sec14l1 it is inactive: -0.987.
The figure for GCUUUAGAACAGAGGGUUATT against Scd4 is inactive: -1.48; for GGAAGUUGUGGAAGAAGACTT against Gcipip it is inactive: -2.63.
The figure for GGCAGAGAAGGAGAAACAGTT against Hmg20b is inactive: -1.14; for CCUUUGACGGCCAUGAGUATT against Muc6 it is inactive: -1.73.
Take GGUUUCUGUGCAUUAGGAATT against Slc35e3: the z-score is inactive: 1.23.
The figure for GGAGACUUAUAACAUGUUUTT against Habp2 is inactive: -0.361; for GGGUGGAGAAAUUUUAAUGTT against Sart2 it is inactive: 2.28.
Then GGAAGUAAAAUUUGACAUGTT against Il1a, with inactive: 0.418; and GGCCCAGAUAAAUAACAUGTT against Kpna1, with inactive: -0.378.
Then GGGUGCUCUGGACAUGUUGTT against Dcxr, with inactive: 0.539; and “GGGUAUUAAGAGCCAACUGTT against 2400002F11Rik”, with inactive: -0.9; and GCAUCUACUCCCUAUAGACTT against Nin, with inactive: 0.371.
Consider UUCUACUGGGCUUAACCAGTT against Olfr1032, for which the z-score is inactive: 0.0145.
On to “CCUCUUGAGGUCUCGUCAATT against 4930412F15Rik”, for which the z-score was inactive: 1.33.
The figure for GCCUGGAAUCUCUUCAUGUTT against Pde3a is inactive: -0.903; for GGUCUUCACUGUCGACUACTT against Cpne7 it is inactive: -0.192; for CCAAUGGUGUGGUCUGUAATT against Olfr572 it is inactive: -2.96.
The figure for GCAGUCUCACCUGAACAGATT against Spinlw1 is inactive: -0.0372; for GGACAUUUUAGUUGUCUUGTT against Slc38a4 it is inactive: 0.422; for “CCUGUAAAACAUUGUGAACTT against 1110013L07Rik” it is inactive: 0.269.
Then GCCCUAUAUAUCAUUCUAGTT against Rhoa, with inactive: -0.352.
With GGAAGACAUAUUAACUACUTT against Gpr37, the z-score was inactive: -0.148.
Turning to GGAUAAUUUUGGAAGCAGATT against Rheb, the z-score is inactive: -1.57.
The figure for GCCAUACCUUCAACUGUCGTT against Ncoa2 is inactive: -1.27.
The figure for GCCACUGAAAGAUAAAGCATT against Mtap2 is inactive: 0.448; for “GAAUAGAGUCAAUGGAUAUTT against F830003B07” it is inactive: -1.03.
The figure for GGCUCUGUGGCAAUCUUGUTT against Olfr1225 is inactive: 0.562; for GGAAGAUAGGAGCUACAAATT against Mr1 it is inactive: -1.38; for GGUGAGCUGAAAUGAGGUGTT against H2-DMb1 it is inactive: -0.143.
As to GUCUAGAAUAAUUGGAGGATT against Klk27, the z-score was inactive: -0.63.
Then CGAUUCAGAUUGCACUUGUTT against Katnb1, with inactive: -0.226; and “GCUAUGCUGAGGAAAAAAATT against 2310056K19Rik”, with inactive: -0.113; and “GGUUUUUUACACAACAUGCTT against 1110067D22Rik”, with inactive: 0.0564.
The figure for GGAGGUCAUCAACGUGCUATT against Nucb1 is inactive: -0.492; for CGGUUUCUUACCAGCAAUUTT against Mgmt it is inactive: -0.0333; for GGCAGCAAGGAAACUAUUATT against Kpna3 it is inactive: -2.49.
“GCAAGACGGUGAUUGUAACTT against 1810010O14Rik”: the z-score is inactive: -0.42.
In the case of GAAAGAAACGGCAGAUUGCTT against V2r12, the z-score was inactive: 0.475.
Then CGACACCAUUCAGAUUGAUTT against Rps4x, with inactive: -1.06; and CGGCUAAGUUGUGCGAUGUTT against C79267, with inactive: -1.64; and GGACUUCUUCGAUUGUUCUTT against Chchd1, with inactive: -1.28.
Then CGAGAAGAUGUGUAUGUCGTT against Mkrn2, with inactive: -0.571; and GGCCUUUAUCCGGAACAUATT against Zfp454, with inactive: -0.429.
The figure for GCUUUUCAGUCUCAUAGUGTT against Huwe1 is inactive: -1.98; for GCGGUGACAUCAUGAUCCATT against Bop1 it is inactive: -3.05.
As to GGGAUUAAUAUCAUACCGATT against Slc30a5, the z-score was inactive: 0.499.
Then GGAUCAAAUUCUACCUUAGTT against Tbc1d5, with inactive: -0.855; and GGAGUAUCUGCGUUAUCUUTT against Tsnaxip1, with inactive: 1.33.
Then “GCGCGAUAGAUUUUGUUUATT against 2610524G09Rik”, with inactive: 0.614; and “CCCAGCUGGCAUGAUCUUUTT against 0610038K03Rik”, with inactive: 0.0488; and GCCAAGAGUUUAGCACUUUTT against Acrbp, with inactive: 0.00874.
Then GCCGCCCUUACCCUAUUUATT against Tceal1, with inactive: 0.539.
Regarding GGAAAGCUUCAGAAUCUAATT against Bckdk, the z-score is inactive: 0.484.
Then GCCUAUGCACCUUACCUUUTT against Uble1a, with inactive: 1.07.
The figure for “GGAACUUGAGGUUUUCUGGTT against 4931427F14Rik” is inactive: 0.26.
Take GCAGAAGACAUCGUACCAATT against Mcm4: the z-score is inactive: -2.21.
The figure for CCAAAUGUUUCGUUAAACUTT against Trf is inactive: 0.881; for GCAGCUAGUGGUUUCUUUGTT against Stra6 it is inactive: -0.319; for GCCCUGUACACGGUAAACUTT against Ccrl1 it is inactive: 3.09.
GGAGUUUACUGAGUUUUAGTT against Prkaca: the z-score was inactive: 1.17.
Then GUAUCAGUGCCAGAGCUACTT against Lor, with inactive: 0.651; and “CGUGUAAACGAAGUUAUCATT against 6030408C04Rik”, with inactive: 0.765.
Consider GGAAAUGAAAACUUCUGUUTT against Nudt15, for which the z-score is inactive: -0.543.
The figure for GGGCAUAGUGACCAGGUUATT against Fgf14 is inactive: -0.94.
The figure for “GGUAUGUUUGCAUCUUUUUTT against E130310K16Rik” is inactive: 0.158; for GCGCAAUGACGAUAAACUCTT against Sema3f it is inactive: 1.03.
Then CGAUAUGCAUGCGAAUAGATT against Zcchc5, with inactive: 0.0865.
Take GCUCAGACAGCUUCGACAUTT against Ngep: the z-score was inactive: 0.676.
Then GGGAGGUUACUAUGGAGACTT against Mia, with inactive: 0.00137.
The figure for GGACAGUUCUUACUUUACATT against Drd2 is inactive: -0.377; for CCAUGCUUGAGAGGAAUAATT against Hint3 it is inactive: -2.48; for GGUGUAGCUGGAAUUGGCATT against AU022726 it is inactive: -0.713.
Then GGAUAAUCGAAUUGAUUGUTT against D9Wsu20e, with inactive: -0.142.
With GGAGAAGUAAAACUCGAAGTT against Rwdd2, the z-score was inactive: 0.113.
With GGACGACCUCAUUCUUUUUTT against Adn, the z-score was inactive: 0.55.
